# Laboratory results reported in PubChem BioAssay (NCATS).
# By UniProt entry, the sequences of proteins in these tests, tags left out. Where a name states a change or a piece, a line headed by the entry shows the natural chain unless it says otherwise. Residues count along the entry.
# UniProt P08482: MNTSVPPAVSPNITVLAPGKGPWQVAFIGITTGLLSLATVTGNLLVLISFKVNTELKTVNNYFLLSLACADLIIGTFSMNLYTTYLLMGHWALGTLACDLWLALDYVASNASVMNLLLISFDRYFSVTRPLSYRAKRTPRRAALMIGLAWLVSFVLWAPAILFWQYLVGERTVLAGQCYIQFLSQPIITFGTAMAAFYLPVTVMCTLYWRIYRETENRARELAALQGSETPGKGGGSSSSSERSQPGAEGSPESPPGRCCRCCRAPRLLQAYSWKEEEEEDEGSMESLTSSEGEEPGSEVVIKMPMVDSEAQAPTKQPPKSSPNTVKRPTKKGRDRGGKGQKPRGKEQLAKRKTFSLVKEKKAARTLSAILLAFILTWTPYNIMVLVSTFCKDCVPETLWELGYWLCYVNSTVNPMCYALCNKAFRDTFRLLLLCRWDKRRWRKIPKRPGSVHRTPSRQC
# UniProt Q27686, 2-499 E452W: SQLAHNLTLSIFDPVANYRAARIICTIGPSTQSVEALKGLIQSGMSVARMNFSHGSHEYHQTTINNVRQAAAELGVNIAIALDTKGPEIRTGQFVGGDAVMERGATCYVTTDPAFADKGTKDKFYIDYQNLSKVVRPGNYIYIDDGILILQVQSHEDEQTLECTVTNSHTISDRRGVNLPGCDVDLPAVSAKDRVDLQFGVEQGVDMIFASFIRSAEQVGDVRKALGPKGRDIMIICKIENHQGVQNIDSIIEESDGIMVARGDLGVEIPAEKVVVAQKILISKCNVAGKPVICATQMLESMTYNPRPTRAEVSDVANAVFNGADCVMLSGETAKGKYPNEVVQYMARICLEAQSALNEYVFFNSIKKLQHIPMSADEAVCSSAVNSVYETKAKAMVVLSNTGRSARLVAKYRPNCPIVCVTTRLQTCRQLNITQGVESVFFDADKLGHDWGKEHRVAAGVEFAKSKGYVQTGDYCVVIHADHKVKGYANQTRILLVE
# UniProt O94782: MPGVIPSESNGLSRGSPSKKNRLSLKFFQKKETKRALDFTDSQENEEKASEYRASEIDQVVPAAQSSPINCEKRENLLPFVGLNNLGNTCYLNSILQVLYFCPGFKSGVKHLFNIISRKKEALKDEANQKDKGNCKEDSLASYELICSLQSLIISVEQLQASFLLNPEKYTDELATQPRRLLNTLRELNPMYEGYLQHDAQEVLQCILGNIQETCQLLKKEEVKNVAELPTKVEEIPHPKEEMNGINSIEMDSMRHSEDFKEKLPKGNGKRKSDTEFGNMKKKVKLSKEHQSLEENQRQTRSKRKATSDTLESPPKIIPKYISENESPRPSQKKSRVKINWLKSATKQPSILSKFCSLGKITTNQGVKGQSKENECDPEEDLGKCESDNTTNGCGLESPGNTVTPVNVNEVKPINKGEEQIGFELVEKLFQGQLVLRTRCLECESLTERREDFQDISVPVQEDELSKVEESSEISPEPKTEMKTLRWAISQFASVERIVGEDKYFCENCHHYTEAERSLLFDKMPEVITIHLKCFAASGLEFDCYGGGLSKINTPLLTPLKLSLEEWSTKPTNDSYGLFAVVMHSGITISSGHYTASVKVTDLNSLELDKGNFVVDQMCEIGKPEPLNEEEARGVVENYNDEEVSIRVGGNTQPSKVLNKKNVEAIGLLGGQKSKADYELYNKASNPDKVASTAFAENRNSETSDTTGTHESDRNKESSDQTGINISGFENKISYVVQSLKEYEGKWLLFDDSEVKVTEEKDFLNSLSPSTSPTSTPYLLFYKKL
# UniProt P11473: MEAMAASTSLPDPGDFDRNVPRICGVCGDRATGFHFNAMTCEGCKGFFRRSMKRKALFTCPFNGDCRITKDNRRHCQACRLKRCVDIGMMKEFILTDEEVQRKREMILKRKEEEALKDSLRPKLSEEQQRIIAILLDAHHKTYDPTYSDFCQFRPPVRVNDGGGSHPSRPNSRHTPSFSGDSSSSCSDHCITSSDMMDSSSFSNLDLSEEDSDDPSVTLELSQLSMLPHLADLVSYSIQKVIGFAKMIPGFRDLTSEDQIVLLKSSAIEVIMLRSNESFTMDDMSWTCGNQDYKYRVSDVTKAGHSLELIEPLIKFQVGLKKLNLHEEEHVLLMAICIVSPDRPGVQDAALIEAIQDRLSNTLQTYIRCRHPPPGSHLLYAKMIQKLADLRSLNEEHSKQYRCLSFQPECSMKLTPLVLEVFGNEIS
# UniProt Q96QE3: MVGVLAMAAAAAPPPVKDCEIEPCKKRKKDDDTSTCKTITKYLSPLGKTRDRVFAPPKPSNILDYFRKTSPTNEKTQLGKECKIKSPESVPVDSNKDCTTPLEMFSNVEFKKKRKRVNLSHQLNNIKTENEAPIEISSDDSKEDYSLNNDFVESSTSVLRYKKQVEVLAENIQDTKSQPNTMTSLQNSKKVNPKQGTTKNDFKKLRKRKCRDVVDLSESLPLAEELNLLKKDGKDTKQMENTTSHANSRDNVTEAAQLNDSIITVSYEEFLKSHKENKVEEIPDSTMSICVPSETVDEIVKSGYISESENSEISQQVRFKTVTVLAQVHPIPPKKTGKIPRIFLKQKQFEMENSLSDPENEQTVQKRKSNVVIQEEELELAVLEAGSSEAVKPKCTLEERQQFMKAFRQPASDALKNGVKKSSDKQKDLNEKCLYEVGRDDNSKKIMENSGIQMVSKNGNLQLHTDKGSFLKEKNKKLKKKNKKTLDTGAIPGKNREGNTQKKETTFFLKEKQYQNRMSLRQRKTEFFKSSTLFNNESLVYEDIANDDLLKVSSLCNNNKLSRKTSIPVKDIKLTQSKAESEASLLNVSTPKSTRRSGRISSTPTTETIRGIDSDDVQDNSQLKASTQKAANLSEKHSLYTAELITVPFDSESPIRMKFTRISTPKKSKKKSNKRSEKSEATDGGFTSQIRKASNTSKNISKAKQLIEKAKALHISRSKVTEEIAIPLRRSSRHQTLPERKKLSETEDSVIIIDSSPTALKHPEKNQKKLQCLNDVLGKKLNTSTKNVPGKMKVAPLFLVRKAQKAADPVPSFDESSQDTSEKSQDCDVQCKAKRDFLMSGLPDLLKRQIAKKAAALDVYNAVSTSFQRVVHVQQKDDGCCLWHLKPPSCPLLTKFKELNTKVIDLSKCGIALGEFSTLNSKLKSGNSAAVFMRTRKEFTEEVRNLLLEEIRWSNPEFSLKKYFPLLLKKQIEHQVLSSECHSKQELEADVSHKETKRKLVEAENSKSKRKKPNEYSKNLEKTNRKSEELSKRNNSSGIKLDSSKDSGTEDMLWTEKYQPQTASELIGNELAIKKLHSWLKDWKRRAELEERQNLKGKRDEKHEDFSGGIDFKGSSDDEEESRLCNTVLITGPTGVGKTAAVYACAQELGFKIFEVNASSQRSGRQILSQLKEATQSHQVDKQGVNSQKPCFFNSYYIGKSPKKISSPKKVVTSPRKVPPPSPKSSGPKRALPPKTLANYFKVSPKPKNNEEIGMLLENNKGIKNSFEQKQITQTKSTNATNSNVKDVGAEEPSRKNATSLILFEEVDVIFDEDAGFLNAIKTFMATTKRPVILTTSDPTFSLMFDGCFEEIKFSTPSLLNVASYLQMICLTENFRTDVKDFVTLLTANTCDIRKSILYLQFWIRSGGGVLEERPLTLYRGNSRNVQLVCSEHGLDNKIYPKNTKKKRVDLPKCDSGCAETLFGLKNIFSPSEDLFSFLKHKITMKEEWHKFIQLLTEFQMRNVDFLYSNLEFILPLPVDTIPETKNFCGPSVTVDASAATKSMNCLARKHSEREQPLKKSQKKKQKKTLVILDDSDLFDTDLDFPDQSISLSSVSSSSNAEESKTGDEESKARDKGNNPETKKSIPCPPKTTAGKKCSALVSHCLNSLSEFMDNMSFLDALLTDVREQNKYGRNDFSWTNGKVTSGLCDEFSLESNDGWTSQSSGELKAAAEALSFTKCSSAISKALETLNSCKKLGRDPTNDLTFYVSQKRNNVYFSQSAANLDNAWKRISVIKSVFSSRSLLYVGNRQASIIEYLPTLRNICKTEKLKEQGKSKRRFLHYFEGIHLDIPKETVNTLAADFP
# UniProt P04150: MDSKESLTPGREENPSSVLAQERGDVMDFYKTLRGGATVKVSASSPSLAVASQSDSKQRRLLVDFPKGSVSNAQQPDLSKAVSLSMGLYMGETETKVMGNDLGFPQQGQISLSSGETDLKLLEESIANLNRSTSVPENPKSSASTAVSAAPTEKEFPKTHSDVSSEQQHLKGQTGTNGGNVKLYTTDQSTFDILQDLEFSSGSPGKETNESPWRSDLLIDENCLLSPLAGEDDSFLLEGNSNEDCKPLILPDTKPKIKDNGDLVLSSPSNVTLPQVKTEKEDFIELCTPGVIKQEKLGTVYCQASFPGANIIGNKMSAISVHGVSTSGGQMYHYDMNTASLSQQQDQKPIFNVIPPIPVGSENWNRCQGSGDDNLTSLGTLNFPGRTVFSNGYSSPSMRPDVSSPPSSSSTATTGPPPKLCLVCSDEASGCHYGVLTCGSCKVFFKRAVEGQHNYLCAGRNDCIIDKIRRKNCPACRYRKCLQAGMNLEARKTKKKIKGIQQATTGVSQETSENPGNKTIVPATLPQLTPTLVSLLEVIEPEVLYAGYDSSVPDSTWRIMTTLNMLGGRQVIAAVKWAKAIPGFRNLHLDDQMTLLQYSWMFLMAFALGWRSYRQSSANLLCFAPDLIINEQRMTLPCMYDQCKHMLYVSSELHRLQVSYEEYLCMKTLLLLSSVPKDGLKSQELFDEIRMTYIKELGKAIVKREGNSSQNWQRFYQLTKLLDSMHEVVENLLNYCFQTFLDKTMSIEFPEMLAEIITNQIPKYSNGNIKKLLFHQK
# UniProt Q07343: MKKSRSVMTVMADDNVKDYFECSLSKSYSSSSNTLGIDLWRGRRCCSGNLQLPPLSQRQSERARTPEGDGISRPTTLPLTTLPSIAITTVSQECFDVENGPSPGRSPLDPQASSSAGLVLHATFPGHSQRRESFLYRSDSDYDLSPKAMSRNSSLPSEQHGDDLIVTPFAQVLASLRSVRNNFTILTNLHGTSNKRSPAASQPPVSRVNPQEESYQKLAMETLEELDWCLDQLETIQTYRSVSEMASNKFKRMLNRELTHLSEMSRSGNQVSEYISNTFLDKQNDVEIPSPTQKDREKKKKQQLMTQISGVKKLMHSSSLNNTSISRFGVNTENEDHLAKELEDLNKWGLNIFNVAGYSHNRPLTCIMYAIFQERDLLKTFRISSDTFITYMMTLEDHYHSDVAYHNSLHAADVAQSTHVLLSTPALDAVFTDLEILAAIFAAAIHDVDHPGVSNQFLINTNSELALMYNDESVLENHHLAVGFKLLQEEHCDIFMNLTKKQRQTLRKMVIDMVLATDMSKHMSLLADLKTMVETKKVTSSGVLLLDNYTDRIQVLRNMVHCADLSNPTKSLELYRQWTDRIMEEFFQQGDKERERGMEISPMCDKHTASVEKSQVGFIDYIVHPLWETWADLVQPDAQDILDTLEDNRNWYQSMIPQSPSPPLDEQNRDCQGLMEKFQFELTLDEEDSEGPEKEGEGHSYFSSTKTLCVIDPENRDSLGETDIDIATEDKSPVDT
# Inconclusive means that the source gave no clear call. Such entries were picked first, then a sample of the others. For some assays here: Where the call is inconclusive, the potency comes from a doubtful curve fit. Where a structure was tested more than once in an assay, its records may differ in their call. Activity calls are given as the source filed them. Unless noted, calls follow the shape of the dose curve; as a rule, active = well fitted curve in the direction sought with a large enough effect; inconclusive = small, poorly fitted or top-dose-only effect, or another doubt; inactive = no such curve, though single readings can be large; an effect the other way counts as inactive or inconclusive.
# How the values were obtained:
# [1] = Stat Signaling Pathway (AID 446; active = well fitted curve in either direction with a large enough effect, not every such curve was filed as active; inconclusive = small, poorly fitted or top-dose-only effect, or another doubt;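 also: ME-180 cervical cancer cells given 40 pM IL-6 alongside compound; SIE-controlled beta-lactamase reporter measured as 460/530 nm FRET emission ratio; % is scaled to controls: 0 for no effect and ±100 for the full control effect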); settings: ME-180 SIE beta-lactamase reporter, IL-6 stimulated, 5 h; at 7.69 µM (top of the series) unless noted
# How it was run: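 IL-6/STAT signaling read in ME-180 cells via an SIE beta-lactamase reporter. Stimulus was 40 pM IL-6 (its AC50) for 5 hrs, so both activation and inhibition register.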
# [2] = qHTS Assay for Identification of Small Molecule Agonists for Thrombopoietin (TPO) Signaling Pathway (AID 917); settings: TPO signaling pathway reporter cells, agonist qHTS, stimulated with TPO at its EC50; activity, positive = activation: at 38.5 µM (top of the series); also: potency is read from the fitted curve at half-maximal effect
# How it was run: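 Murine Ba/F3 cells stably expressing human TPO receptor and a Glycoprotein IIb promoter–luciferase reporter were IL-3-starved overnight, then treated with compounds plus TPO (26 pM final, its EC50) for 24 hrs at 37 C; luminescence was read.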
# [3] = qHTS Assay for Identification of Small Molecule Agonists for NFkB Signaling Pathway (AID 928; calls by dose curve); settings: NFkB beta-lactamase reporter cells, blue/green ratio
# How it was run: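 ME-180 NFkB-bla cells carry a beta-lactamase reporter under an NFkB response element. Compound plus 10 pM TNF alpha (final) was applied for 5 hrs at 37 C. After 2 hrs with LiveBLAzer substrate, 460/530 nm emission was read at 405 nm excitation.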
# [4] = molecular target: Muscarinic acetylcholine receptor M1 (Rattus norvegicus) (UniProt P08482); assay: qHTS Assay for Antagonists of Acetylcholine Muscarinic M1 Receptor: Measurement of IP-One Response (AID 944); also: nearly all actives have a fitted effect of over 75% in size; also: potency is read from the fitted curve at half-maximal effect
# [5] = molecular target: Pyruvate kinase (Leishmania mexicana) (UniProt Q27686); assay: qHTS Validation Assay for Activators of Leishmania Mexicana Pyruvate Kinase (AID 959); settings: purified L. mexicana pyruvate kinase, enzyme activity
# How it was run: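 The enzyme is a highly purified E451W mutant of LmPYK used at 0.2 nM. It converts 0.5 mM PEP and 0.1 mM ADP over 1 h at room temperature; product ATP is quantified by luciferase luminescence relative to DMSO controls.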
# [6] = molecular target: Ubiquitin carboxyl-terminal hydrolase 1 (Homo sapiens) (UniProt O94782); assay: Inhibitors of USP1/UAF1: Pilot qHTS (AID 504865);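 also: rhodamine fluorescence freed from ubiquitin-rhodamine substrate followed over time; top concentration of the series differs between compounds; % is scaled to controls: 0 for no effect and ±100 for the full control effect; nearly all actives have a fitted effect of over 35% in size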
# How it was run: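 USP1/UAF1 complex (1nM) preincubated with compound 15 min at room temperature, then Ub-Rho substrate (150nM final) added. Fluorescence read kinetically at 480/540 nm, 6 reads every 60 seconds. Buffer: 50mM HEPES pH 7.8, 0.5mM EDTA, 0.1 mg/ml BSA, 1mM TCEP, 0.01% Tween-20.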
# [7] = qHTS for Inhibitors of the vitamin D receptor (VDR): Hit Validation using a Texas Red Assay (AID 602201); also: potency is read from the fitted curve at half-maximal effect
# How it was run: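 After a 2-hour room-temperature incubation, polarization of Texas-Red emission was read (Ex 595 nm/Em 615 nm). Final mix contained 7 nM Texas Red, 1.5 uM VDR-LBD and LG19078.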
# [8] = molecular target: Vitamin D3 receptor (Homo sapiens) (UniProt P11473); assay: qHTS for Inhibitors of the vitamin D receptor (VDR): Hit Validation using a Beta-Lactamase Assay (AID 602202); also: potency is read from the fitted curve at half-maximal effect
# How it was run: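 Beta-lactamase reporter read-out (447 nm emission of cleaved FRET substrate, 2 h) after 18 h compound exposure of HEK293 cells carrying a VDR-GAL4 fusion and UAS reporter, stimulated with LG190178.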
# [9] = qHTS for Inhibitors of the vitamin D receptor (VDR): Hit Validation using a Cytotoxicity Assay (AID 602204);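 also: cells co-treated with VDR agonist LG190178 at 300 nM; potency is read from the fitted curve at half-maximal effect; nearly all actives have a fitted effect of over 75% in size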
# How it was run: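 First, 20,000 cells are dispensed per well. Next comes a 4 h incubation, then compound addition and an 18 h incubation. Finally, ATP-based luminescent reagent is added and plates are read after 30 min.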
# [10] = qHTS screen for small molecules that inhibit ELG1-dependent DNA repair: Hit Confirmation in Cell-Based Luciferin Assay (AID 624247); also: potency is read from the fitted curve at half-maximal effect
# How it was run: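 Luciferin substrate reagent dispensed first, then compounds or DMSO vehicle pin-transferred, then luciferase enzyme added; luminescence read on a CCD-based plate reader.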
# [11] = molecular target: ATPase family AAA domain-containing protein 5 (Homo sapiens) (UniProt Q96QE3); assay: qHTS screen for small molecules that inhibit ELG1-dependent DNA repair in human embryonic kidney (HEK293T) cells expressing luciferase-tagged ELG1: Hit Confirmation using MMS Stimulated ELG1 (AID 624249); also: potency is read from the fitted curve at half-maximal effect; nearly all actives have a fitted effect of over 60% in size
# How it was run: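 ELG1-luciferase HEK293T cells were plated at 2,000 cells/well, and about 5 h later test compounds were pin-transferred alongside MMS (final 10 µM). After 16 h, luciferase activity was read with Amplight reagent; hits suppress the signal.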
# [12] = qHTS screen for small molecules that inhibit ELG1-dependent DNA repair: Hit Confirmation with MMS Viability (AID 624251);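 also: potency is read from the fitted curve at half-maximal effect; viability read 16 h after compound addition; nearly all actives have a fitted effect of over 60% in size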
# How it was run: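 Under 10 µM MMS, compounds were tested on ELG1-luc HEK293T cells seeded at 2,000 cells/well; survival was determined by CellTiter-Glo luminescence 16 h post-addition.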
# [13] = molecular target: Luciferin 4-monooxygenase (Photinus pyralis) (UniProt P08659); assay: qHTS screen for small molecules that inhibit ELG1-dependent DNA repair: Hit Confirmation in Biochemical Luciferin Assay (AID 624253); also: % is scaled to controls: 0 for no effect and ±100 for the full control effect
# How it was run: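 Counter-screen against purified firefly luciferase: substrate reagent dispensed first, then compound or DMSO by pintool, then luciferase enzyme added. Luminescence read on a CCD-based imager.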
# [14] = Confirmation and Secondary Assay for Modulators of Hemoglobin Beta Chain Splicing at IVS2 654 locus (AID 910); settings: HeLa EGFP-654 splicing reporter, GFP fluorescence, 48 h;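 also: HeLa cells stably carrying EGFP split by mutant beta-globin IVS2-654 intron; per-well total GFP intensity by laser scanning cytometry after 2-day treatment; potency is read from the fitted curve at half-maximal effect; potency of activators that raise GFP signal by restoring correct splicing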
# How it was run: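 Readout: per-well total peak green fluorescence (488 nm ex, 500–520 nm em) from objects 5–250 µm, reflecting correct splicing of an EGFP-654 reporter. Compounds were applied for 2 days at 37 °C to overnight-plated HeLa EGFP-654 cells; controls were DMSO and 500 nM IVS2-654 PNA.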
# [15] = molecular target: Muscarinic acetylcholine receptor M1 (Rattus norvegicus) (UniProt P08482); assay: qHTS Assay for Antagonists of Acetylcholine Muscarinic M1 Receptor: Kinetic Measurement of Intracellular Calcium Response (AID 943); also: potency is read from the fitted curve at half-maximal effect; nearly all actives have a fitted effect of over 75% in size
# How it was run: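 CHO cells stably expressing rat M1 were loaded with no-wash Fluo-4 dye for 1 h at 37C, pre-incubated 10 min with compound, then challenged with EC80 carbachol (100 nM final); kinetic calcium read 4 min, peak/basal ratio.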
# [16] = molecular target: Glucocorticoid receptor (Homo sapiens) (UniProt P04150); assay: GR-GFP Redistribution (AID 450;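 active = compounds whose dose series gives a full or clear partial fitted curve of increased nuclear translocation; inconclusive = weak partial curve or effect only at the top dose; inactive = no dose-dependent translocation response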; also: potency is read from the fitted curve at half-maximal effect); settings: U2OS GR-GFP nuclear translocation, laser cytometry, 2 h
# [17] = molecular target: Glucocorticoid receptor (Homo sapiens) (UniProt P04150); assay: GR-EFC Redistribution (AID 451; calls by dose curve; also: potency is read from the fitted curve at half-maximal effect); settings: CHO-K1 GR-EFC translocation, beta-gal luminescence, 2 h
# How it was run: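 Translocation of GR-ED fusion to nuclear EA restores b-gal, read by luminescence after 1 h room-temperature detection. Engineered CHO-K1 biosensor cells, 1,000/well, exposed 2 h at 37 C to titrations up to 46 uM final.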
# [18] = molecular target: Mitogen-activated protein kinase 10 (Mus musculus) (UniProt Q61831); assay: JNK3 AlphaScreen Assay (AID 530; active = well fitted curve in either direction with a large enough effect, not every such curve was filed as active; inconclusive = small, poorly fitted or top-dose-only effect, or another doubt); settings: JNK3 lysate, c-Jun phosphorylation; activity change, negative = inhibition: at 57.1 µM (top of the series)
# How it was run: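 Room-temperature AlphaScreen kinase assay; pre-activated HepG2 lysate as JNK3 source, biotin-GST-cJun(1-79) substrate, 10 uM ATP, compound 15 min preincubation.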
# [19] = molecular target: 3',5'-cyclic-AMP phosphodiesterase 4B (Homo sapiens) (UniProt Q07343); assay: qHTS Assay for Inhibitors of PDE-IV (AID 607; active = well fitted activation curve with a large enough effect in the main read-out, with a control signal flat, not every such curve was filed as active; inconclusive = small, poorly fitted or top-dose-only effect, or effect the other way, or a change in a side signal; also: potency is read from the fitted curve at half-maximal effect); settings: HEK293 ACTOne CNG channel cells, membrane potential fluorescence; activation (PDE inhibition): at 22.9 µM (top of the series)
# How it was run: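 Live HEK293 cells with a modified cyclic nucleotide-gated (CNG) channel report intracellular cAMP via membrane-potential dye fluorescence (ex 535/em 590 nm). Endogenous PDE-IV was targeted. Compounds were tested at up to 22.9 uM final; RO 20-1724 100 uM served as control.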
# [20] = qHTS Assay for Identification of Small Molecule Antagonists for NFkB Signaling Pathway (AID 895; active = well fitted inhibition curve with a large enough effect in the signal ratio, with a control signal flat, not every such curve was filed as active; inconclusive = small, poorly fitted or top-dose-only effect, or effect the other way, or a change in a side signal; the % refers to the signal ratio; also: % is scaled to controls: 0 for no effect and ±100 for the full control effect); settings: NFkB beta-lactamase reporter cells, FRET ratio 460/530, stimulated with 10 pM TNF alpha; activity change, negative = inhibition: at 38.3 µM (top of the series)
# How it was run: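 Beta-lactamase reporter read-out (460 and 530 nm emission ratio, 405 nm excitation, 2 hrs substrate loading RT) after 5 hr stimulation with 10 pM TNF alpha in compound-treated NFkB-bla ME-180 cells in low-serum medium.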
compound,measurement,setting,value
CCOC(=O)COn1c(=O)c(-c2ccc(OC)c(OC)c2)[n+]([O-])c2ccccc21,"activity, negative = inhibition",[1],inactive: 4.19% [at 17.2 µM]
Nc1nccc(Nc2ccc(S(N)(=O)=O)cc2)n1,"activity, negative = inhibition",[1],inactive: -5%
O=c1cc(O)cc(/C=C\c2ccc(O)c(O)c2)o1,Potency,[2],"inconclusive: 12.6 µM [inhibitor, partial curve, poor fit]"
same,Potency,[3],"inconclusive: 1.26 µM [inhibitor, partial curve]"
same,Potency,[4],"inconclusive: 25.1 µM [inhibitor, partial curve, poor fit]"
OC[C@@H]1O[C@@H](n2cnc3c(NC4CCCCC4)ncnc32)[C@@H](O)[C@H]1O,Potency,[2],"inconclusive: 6.31 µM [activator, single point]"
NC[C@](O)(CS(=O)(=O)O)c1ccc(Cl)cc1,Potency,[4],inactive
CO/N=C(\C(=O)N[C@@H]1C(=O)N2C(C(=O)O)=C(CSc3nc(=O)c(O)nn3C)CS[C@@H]12)c1csc(N)n1,Potency,[5],active: 25.1 µM
C[C@@H](C[N+](C)(C)C)OC(N)=O,Potency,[6],inactive
O=C(/C=C/c1ccccc1)c1ccccc1,Potency,[7],"inconclusive: 28.2 µM [inhibitor, single point]"
same,Potency,[8],active: 25.9 µM
same,Potency,[9],"inconclusive: 29.9 µM [cytotoxic, single point]"
C=CCN1CCc2c(cc(O)c(O)c2Cl)[C@H](c2ccccc2)C1,Potency,[3],"inconclusive: 12.6 µM [inhibitor, partial curve]"
COc1ccc(-n2c(C)c(C(C)=O)c3cc(O)ccc32)cc1,Potency,[10],"inconclusive: 1.41 µM [inhibitor, partial curve, poor fit]"
same,Potency,[11],"inconclusive: 1.12 µM [inhibitor, full curve]"
same,Potency,[12],"inconclusive: 0.997 µM [rising, full curve, poor fit]"
same,Potency,[13],inactive
CC(=O)NCCNc1nc(-c2ccc(N(C)C)cc2)nc2ccccc12,Potency,[14],"inconclusive: 31.6 µM [activator, single point]"
COc1cc2nc(N3CCN(C(=O)OCc4ccccc4)[C@H](C(=O)NC(C)(C)C)C3)nc(N)c2cc1OC,Potency,[2],"inconclusive: 12.6 µM [inhibitor, partial curve]"
same,Potency,[15],"inconclusive: 20 µM [inhibitor, partial curve, poor fit]"
Cc1ccc2c(c1)C(CCN)C(=O)N2Cc1ccccc1 (centres undefined),Potency,[16],inactive: > 20.6 µM
CC1(C)Cc2c(sc3ncn4nnnc4c23)CO1,Potency,[16],inactive: > 20.6 µM
C[C@@]12CC[C@@H]3[C@H](CCC4=CC(=O)CC[C@]43C)[C@@H]1CC[C@@H]2C(=O)COS(=O)(=O)c1ccc(Br)cc1,Potency,[16],active: 0.793 µM
CC(=O)/C(C)=N\O,Potency,[16],active: 7.38 µM
same,Potency,[17],inactive: > 46 µM
same,Potency,[18],"inconclusive: 0.0316 µM [activator, full curve, poor fit]"
same,Potency,[19],"inconclusive: 19 µM [inhibitor, single point]"
same,"activity change, negative = inhibition",[20],inconclusive: -10.6%
same,Potency,[4],inactive

# Random excerpt: two entries already listed.
compound,measurement,setting,value
NC[C@](O)(CS(=O)(=O)O)c1ccc(Cl)cc1,Potency,[4],inactive
COc1ccc(-n2c(C)c(C(C)=O)c3cc(O)ccc32)cc1,Potency,[11],"inconclusive: 1.12 µM [inhibitor, full curve]"
